According to publication PMC10174503:
These are yes or no findings as the source states them, for the method shown. In cells and extracts the contact can be indirect. Here binding means that the protein was enriched with, or labelled near, the bait; the list need not be complete.

The chains behind the UniProt entries cited, without tags or fusion partners.
UniProt Q9EPU0: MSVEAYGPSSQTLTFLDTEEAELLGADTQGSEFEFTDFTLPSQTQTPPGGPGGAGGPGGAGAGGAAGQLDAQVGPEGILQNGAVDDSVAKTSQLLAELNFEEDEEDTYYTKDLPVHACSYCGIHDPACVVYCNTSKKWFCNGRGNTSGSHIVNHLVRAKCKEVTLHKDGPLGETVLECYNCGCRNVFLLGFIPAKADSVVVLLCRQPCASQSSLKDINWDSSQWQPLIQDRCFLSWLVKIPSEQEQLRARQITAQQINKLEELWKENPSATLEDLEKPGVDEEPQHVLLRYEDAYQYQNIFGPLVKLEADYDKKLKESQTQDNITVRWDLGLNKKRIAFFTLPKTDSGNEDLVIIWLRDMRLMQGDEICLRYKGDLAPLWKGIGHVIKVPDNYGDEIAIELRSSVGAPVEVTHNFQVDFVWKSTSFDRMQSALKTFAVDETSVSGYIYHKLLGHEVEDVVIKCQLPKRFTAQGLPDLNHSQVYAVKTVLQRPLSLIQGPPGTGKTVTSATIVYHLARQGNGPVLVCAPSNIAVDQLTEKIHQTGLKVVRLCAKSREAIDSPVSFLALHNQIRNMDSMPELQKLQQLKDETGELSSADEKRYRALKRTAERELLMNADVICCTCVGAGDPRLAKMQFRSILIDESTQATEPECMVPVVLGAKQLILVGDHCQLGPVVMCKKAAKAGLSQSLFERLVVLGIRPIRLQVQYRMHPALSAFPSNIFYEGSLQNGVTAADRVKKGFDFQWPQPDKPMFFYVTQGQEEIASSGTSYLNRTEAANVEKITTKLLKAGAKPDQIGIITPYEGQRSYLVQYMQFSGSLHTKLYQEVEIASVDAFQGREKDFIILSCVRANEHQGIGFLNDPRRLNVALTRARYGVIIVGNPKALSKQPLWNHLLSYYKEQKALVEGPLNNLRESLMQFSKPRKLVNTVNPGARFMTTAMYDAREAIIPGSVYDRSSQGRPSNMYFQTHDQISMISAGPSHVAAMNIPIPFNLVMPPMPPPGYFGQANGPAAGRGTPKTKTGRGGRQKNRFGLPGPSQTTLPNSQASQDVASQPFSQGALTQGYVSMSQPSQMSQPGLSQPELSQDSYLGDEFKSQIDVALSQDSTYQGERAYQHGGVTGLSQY

Target: T1, MOV10 (Moloney leukemia virus 10) RNA helicase (mouse (endogenous in testis)) (UniProt P23249)
T1 sequence: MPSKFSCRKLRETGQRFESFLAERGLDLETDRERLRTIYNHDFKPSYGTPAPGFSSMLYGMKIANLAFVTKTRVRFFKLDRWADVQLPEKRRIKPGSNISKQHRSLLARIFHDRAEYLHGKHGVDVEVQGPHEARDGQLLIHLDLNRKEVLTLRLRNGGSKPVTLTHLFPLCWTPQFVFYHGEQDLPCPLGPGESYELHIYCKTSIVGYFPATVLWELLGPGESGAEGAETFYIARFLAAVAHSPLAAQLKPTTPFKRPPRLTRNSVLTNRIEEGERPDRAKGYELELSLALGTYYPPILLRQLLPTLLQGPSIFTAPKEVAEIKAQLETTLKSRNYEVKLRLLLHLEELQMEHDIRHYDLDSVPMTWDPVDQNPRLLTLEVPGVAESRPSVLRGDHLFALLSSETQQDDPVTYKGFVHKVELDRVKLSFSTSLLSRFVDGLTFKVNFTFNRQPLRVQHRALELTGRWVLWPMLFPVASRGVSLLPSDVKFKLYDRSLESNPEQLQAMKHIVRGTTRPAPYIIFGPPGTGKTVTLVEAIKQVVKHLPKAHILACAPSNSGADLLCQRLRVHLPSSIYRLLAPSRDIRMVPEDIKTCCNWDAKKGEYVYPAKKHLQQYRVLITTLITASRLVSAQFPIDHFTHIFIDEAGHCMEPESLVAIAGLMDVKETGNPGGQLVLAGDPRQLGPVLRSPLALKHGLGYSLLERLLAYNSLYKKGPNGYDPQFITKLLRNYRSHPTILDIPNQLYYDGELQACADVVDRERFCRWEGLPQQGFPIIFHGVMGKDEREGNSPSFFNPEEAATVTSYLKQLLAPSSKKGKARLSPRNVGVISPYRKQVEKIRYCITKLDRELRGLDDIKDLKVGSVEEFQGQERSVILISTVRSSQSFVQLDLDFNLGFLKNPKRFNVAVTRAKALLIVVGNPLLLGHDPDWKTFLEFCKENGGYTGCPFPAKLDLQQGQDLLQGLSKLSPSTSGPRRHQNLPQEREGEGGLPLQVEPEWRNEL
Experiment: affinity purification with mass spectrometry; IP of mouse testis lysate (RIPA buffer) with anti-MOV10 antibody on protein G Dynabeads; Coomassie-stained bands present in the MOV10 lane and absent in the IgG lane identified by mass spectrometry

UPF1 (from UniProt Q9EPU0 1-1124) was tested, and the binding was “binds”.
